Measurements from PMC11505976.
These are yes or no findings as the source states them, for the method shown. Some binding calls cover weakened binding; strength is not graded here. Tags and fused reporters may be left off the sequences shown.

Biological target: T1, His-tagged CD14 (UniProt P08571)
T1 sequence: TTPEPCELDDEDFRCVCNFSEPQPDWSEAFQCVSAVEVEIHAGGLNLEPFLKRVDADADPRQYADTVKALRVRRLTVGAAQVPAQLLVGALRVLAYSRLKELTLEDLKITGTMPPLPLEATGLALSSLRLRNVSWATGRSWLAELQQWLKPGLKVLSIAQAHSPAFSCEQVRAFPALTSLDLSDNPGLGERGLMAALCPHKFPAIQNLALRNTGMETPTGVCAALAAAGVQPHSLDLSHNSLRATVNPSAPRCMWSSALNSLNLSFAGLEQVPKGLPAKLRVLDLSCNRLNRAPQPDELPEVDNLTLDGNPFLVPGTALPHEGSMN
Assay: co-IP; anti-His antibody on Protein A/G agarose beads; His-tagged CD14 0.25 ug with or without sLN 1.0 ug for 1 h; beads washed, boiled, dot-blot probed with anti-sLN antibody; both purified

## DHLSDNYT [Short Link N]
  binding: binds
